These are yes or no findings as the source states them, for the method shown. Binding seen in cells or lysates may run through a third protein. Some entries that bind do so weakly or less than the wild type.
Key:
SFB-NEDD8 (wild type) = SFB-NEDD8 (wild type) (UniProt Q15843); test: pull-down; pull-down of SFB-NEDD8 from lysate of transfected 293T cells, blots for endogenous Ku80 and Ku70 (Supplementary Fig. 1A)
Flag-tagged HUWE1 = Flag-tagged HUWE1 (UniProt Q7Z6Z7); test: co-IP; immunoprecipitation of Flag-HUWE1 from cell lysate, blots for DNA-PKcs, Ku70/Ku80 and UBE2M
[1] = target: DNA-dependent protein kinase catalytic subunit (DNA-PKcs) (human (endogenous in the paper's human cell lines; line not stated for Fig. 3)) (UniProt P78527); test: co-IP; immunoprecipitation with DNA-PKcs antibody from cell lysate (NETN-300 lysis, diluted with NETN-100, protein A/G agarose), blot for HUWE1

Protein sequences, listed by entry. Tags and fused reporters are not part of them. Lines headed by an entry give the natural chain unless they say otherwise; changes in a name come on top. Residues count along the entry.
UniProt Q15843, residues 1-76: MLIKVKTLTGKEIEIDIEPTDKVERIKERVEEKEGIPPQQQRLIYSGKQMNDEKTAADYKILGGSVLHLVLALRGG
UniProt P78527: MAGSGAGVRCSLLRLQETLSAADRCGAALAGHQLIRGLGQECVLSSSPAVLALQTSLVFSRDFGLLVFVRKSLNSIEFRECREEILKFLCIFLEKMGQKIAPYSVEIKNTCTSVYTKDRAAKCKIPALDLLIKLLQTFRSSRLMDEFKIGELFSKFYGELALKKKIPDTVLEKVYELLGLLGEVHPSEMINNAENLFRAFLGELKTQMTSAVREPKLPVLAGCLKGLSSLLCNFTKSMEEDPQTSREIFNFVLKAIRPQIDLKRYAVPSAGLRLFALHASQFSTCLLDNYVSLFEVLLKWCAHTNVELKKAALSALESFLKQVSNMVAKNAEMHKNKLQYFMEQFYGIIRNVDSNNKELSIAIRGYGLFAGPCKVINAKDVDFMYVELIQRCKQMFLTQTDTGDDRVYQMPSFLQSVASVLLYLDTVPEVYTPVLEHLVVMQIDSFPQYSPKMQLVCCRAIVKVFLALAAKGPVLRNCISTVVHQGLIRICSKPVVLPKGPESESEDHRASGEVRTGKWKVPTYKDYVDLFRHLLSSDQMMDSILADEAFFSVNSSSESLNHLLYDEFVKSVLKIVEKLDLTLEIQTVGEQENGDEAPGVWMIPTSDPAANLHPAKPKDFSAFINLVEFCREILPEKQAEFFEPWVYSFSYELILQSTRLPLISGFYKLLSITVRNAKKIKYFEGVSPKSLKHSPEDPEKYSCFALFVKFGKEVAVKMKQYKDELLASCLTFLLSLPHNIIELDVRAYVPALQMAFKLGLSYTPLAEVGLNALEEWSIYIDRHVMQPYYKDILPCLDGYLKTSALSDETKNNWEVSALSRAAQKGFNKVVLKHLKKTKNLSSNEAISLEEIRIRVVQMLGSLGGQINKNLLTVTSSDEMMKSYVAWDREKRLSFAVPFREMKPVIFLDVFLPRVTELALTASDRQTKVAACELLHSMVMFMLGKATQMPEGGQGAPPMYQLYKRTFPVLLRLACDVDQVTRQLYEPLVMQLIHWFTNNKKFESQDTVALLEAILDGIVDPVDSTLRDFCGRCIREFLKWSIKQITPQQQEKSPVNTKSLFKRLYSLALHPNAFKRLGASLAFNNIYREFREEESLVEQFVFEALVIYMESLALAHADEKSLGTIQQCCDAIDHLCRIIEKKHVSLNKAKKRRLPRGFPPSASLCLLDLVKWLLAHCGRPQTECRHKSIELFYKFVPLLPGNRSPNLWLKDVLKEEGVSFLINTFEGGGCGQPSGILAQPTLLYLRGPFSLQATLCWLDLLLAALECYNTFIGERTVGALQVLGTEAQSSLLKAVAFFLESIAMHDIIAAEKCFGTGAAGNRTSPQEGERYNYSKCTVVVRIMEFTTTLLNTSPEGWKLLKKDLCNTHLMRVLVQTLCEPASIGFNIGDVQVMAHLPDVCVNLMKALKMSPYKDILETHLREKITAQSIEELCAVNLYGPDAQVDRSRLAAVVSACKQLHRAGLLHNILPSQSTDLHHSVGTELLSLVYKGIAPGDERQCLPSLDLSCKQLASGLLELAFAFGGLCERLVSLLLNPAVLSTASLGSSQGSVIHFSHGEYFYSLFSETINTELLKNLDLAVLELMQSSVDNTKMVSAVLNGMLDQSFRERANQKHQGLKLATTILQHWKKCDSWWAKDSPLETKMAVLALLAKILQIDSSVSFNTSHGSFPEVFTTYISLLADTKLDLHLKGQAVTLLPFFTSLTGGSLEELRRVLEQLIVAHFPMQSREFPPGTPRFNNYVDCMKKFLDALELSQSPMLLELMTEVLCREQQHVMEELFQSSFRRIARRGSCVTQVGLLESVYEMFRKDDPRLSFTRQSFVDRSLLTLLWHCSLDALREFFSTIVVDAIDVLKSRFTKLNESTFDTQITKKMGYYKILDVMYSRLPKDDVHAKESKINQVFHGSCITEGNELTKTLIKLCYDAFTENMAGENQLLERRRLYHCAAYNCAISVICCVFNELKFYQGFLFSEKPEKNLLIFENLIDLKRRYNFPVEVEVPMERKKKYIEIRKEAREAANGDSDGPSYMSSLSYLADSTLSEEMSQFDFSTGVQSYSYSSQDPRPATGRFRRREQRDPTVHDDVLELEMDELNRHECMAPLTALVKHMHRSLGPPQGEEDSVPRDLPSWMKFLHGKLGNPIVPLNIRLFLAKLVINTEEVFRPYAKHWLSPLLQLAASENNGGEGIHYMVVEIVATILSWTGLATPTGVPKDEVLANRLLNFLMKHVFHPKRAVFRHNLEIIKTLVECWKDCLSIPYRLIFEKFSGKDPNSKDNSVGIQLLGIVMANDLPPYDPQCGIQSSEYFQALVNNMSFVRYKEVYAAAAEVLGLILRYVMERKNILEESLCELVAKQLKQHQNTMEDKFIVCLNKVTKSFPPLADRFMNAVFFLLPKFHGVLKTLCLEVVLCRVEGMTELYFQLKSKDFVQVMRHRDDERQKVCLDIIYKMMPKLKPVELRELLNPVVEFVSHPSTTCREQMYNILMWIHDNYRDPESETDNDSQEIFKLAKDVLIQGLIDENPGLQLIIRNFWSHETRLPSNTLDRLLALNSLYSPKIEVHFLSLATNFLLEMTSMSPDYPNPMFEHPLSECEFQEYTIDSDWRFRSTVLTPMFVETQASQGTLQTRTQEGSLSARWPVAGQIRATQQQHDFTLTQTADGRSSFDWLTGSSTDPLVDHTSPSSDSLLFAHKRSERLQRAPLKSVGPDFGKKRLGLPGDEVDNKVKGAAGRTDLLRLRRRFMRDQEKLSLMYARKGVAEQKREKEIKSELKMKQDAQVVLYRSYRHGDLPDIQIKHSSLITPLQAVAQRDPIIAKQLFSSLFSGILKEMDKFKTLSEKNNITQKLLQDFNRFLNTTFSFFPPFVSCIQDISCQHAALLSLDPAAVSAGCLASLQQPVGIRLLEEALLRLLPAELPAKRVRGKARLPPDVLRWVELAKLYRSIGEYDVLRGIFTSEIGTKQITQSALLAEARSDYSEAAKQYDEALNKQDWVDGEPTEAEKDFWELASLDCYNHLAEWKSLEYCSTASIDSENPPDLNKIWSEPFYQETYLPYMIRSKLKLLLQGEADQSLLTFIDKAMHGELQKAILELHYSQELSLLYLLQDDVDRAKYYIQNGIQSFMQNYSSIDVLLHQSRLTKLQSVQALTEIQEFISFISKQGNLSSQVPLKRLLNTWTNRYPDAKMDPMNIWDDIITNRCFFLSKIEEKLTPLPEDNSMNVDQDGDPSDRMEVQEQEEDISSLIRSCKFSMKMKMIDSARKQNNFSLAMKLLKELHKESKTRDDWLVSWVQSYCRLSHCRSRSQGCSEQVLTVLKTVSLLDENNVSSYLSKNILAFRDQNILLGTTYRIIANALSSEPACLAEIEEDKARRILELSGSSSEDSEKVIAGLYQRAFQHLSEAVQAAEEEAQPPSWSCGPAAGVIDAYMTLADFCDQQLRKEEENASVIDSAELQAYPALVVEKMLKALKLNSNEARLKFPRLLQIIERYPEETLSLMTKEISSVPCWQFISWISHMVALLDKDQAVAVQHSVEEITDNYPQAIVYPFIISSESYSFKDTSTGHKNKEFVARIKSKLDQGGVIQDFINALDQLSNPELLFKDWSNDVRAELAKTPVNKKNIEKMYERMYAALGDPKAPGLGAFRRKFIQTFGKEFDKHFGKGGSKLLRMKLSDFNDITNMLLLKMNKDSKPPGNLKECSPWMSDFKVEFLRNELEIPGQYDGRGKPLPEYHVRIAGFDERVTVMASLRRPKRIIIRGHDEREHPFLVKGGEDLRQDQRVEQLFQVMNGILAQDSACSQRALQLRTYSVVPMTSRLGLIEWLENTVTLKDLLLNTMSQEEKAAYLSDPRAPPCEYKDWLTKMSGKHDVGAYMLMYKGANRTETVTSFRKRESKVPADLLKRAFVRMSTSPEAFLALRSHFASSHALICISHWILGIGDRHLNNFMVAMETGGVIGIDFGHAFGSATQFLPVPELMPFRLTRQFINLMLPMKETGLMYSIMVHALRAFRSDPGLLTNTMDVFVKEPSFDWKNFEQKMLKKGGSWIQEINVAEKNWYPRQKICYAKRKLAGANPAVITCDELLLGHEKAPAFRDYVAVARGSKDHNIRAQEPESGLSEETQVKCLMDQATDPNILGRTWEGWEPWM
UniProt P12956: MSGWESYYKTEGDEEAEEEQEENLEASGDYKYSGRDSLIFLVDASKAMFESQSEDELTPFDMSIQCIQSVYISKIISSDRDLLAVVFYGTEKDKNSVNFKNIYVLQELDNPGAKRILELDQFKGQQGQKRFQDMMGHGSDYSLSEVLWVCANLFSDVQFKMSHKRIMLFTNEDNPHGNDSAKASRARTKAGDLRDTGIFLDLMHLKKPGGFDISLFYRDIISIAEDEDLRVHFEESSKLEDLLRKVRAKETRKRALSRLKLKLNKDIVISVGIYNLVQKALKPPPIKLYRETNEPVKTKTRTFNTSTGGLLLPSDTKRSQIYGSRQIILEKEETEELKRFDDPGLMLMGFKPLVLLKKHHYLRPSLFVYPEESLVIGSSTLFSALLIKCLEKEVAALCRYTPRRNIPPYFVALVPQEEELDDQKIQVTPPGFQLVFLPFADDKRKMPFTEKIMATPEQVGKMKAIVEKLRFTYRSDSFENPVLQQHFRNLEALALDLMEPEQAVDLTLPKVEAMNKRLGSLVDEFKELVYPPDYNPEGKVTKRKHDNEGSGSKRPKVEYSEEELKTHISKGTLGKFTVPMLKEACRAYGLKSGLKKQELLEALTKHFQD
UniProt P61081: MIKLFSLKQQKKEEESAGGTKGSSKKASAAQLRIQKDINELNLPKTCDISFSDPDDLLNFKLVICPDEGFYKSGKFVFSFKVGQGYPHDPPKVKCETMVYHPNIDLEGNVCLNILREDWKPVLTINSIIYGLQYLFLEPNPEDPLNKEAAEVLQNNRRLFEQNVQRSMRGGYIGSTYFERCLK

binding (SFB-NEDD8 (wild type)) | binding (Flag-tagged HUWE1) | binding [1] | Substance
no binding | binds |  | Ku70/Ku80 heterodimer (from UniProt P12956 1-609; P13010 1-732) (complex)
 |  | binds | HUWE1 (HECT, UBA, and WWE domain containing E3 ubiquitin protein ligase 1), endogenous (from UniProt Q7Z6Z7 1-4374) (enzyme)
 | binds |  | UBE2M (neddylation E2-conjugating enzyme) (from UniProt P61081 1-183)
 | binds |  | DNA-dependent protein kinase catalytic subunit (DNA-PKcs) (from UniProt P78527 1-4128) (enzyme)
